Most values lie at the floor of the assay. Slopes are relative: functional sequences can read slightly below zero.

The test system of the series is Saccharomyces cerevisiae PS128 hsf1 delta, HSF1(1-493) fusion. In words: growth estimate (transactivation domain function in HSF1 fusion, heat-shock survival) (a.u. (slope of normalised read count over time)); higher = stronger growth at 37°C, i.e. more transactivation activity. As to conditions: library: random library.
AACHENSNLNELLHRERWRA: the growth estimate was less than -0.25.

WLRCLGHRQLDDRGNHLYPS: the growth estimate was -0.245.

Consider VPLLGRCMHAALHWCDNRPA, for which the growth estimate was less than -0.25. The figure for VIRLSDSCQMSSLDHVSI is less than -0.25. With VWTGSVVQILTHAAYWSLKL the figure was less than -0.25; with NPANAGRTYQNVKTPA, less than -0.25. The figure for NKFSKCPVKCARAG is less than -0.25; for MRSMVVVESL it is less than -0.25. For the substance GFVILLVGTHRSVLGFDRAT, the growth estimate was less than -0.25.

For the substance CMHWLYCLSKPRLRFLGFRV, the growth estimate is less than -0.25. With CNGIAGLTPPRTRGSLETS the figure was less than -0.25; with GRWCYSPFSGFRRFHF, less than -0.25. With NRH the figure was less than -0.25; with RFTLRGVTDPGIHIDTSLLV, less than -0.25. AAG: the growth estimate is less than -0.25. With RVTRW the figure was less than -0.25; with HTALGYRNVVCHRRATYPPS, less than -0.25.

As for IPSIAVVGSRTRDSGPLAGH, the growth estimate was less than -0.25. Consider CSLQLPKVALRVVRVCVGGD, for which the growth estimate was -0.246. The figure for ELFQRLRLEIAEAIGGR is less than -0.25; for RGFGVASVYCSFSYGVVSRI it is less than -0.25. As to PLSLALGYNPFSVIVQEGGG, the growth estimate is less than -0.25. Consider NVTRASPGTCEVGGPGRIIQ, for which the growth estimate is -0.241. Take GEIRPAIAHS: the growth estimate is less than -0.25. For PLTGRIKAQLNRREYCGDLW, the growth estimate was less than -0.25. Regarding NLHGCRSQYA, the growth estimate is less than -0.25. With RHAGWMESQKIISER the figure was -0.24; with EITKLFTFRAGSMLWSSLVR, less than -0.25; with HANACVVGRLISATTPRRAR, less than -0.25. The figure for IWTYTNFRANLSRG is less than -0.25; for VNIHWS it is less than -0.25; for TKRNGKKSGKLYTWAAIR it is -0.246. With NSVSPRVCAHAQA the figure was less than -0.25. For LTSQL, the growth estimate was less than -0.25. The figure for VNR is less than -0.25; for AVDIGLERCGYPYKIAAIDN it is less than -0.25; for ACHVT it is less than -0.25.

With YSLESKPWASLY, the growth estimate was less than -0.25. For the substance QLIFDKHRLPDLEEGVFSAR, the growth estimate is less than -0.25. On to SNVRDLIIRAHTVNPEEAPK, for which the growth estimate is less than -0.25. The figure for RRGRTLSYETGLVQWTLDRG is -0.243. Turning to PNVAKSVRDHLAILG, the growth estimate was less than -0.25.

For KPFRCWVHRPVGMRPKLI, the growth estimate is less than -0.25. The figure for PRGVSQGETVLSVSTIAILC is less than -0.25.

Regarding KIIRHMTNLFYSSGSCMSEA, the growth estimate is less than -0.25. On to LSMRIPRSVGRHSR, for which the growth estimate was less than -0.25. Regarding GLCRL, the growth estimate was less than -0.25.

Take AGRSAVTTPQYIPVMSARGP: the growth estimate is less than -0.253. As to LGTSLVIHWGGLPDKVRRYA, the growth estimate was less than -0.25. In the case of LARGIGGREYSYIARPNPIA, the growth estimate was less than -0.25. Turning to ACNVKAGGAYLHTDFYISSG, the growth estimate is less than -0.25. As to LRHTRGGSGMSLGHVVKGRP, the growth estimate is less than -0.25. The figure for CPPPLSPKHSIESGM is less than -0.25; for GTSPLWRVSPAA it is less than -0.25; for TPRKADPREVQPIQINQPNT it is less than -0.25. With SHN the figure was less than -0.25.

Regarding KNPVVVSMVYDSCGQLEGRA, the growth estimate is less than -0.25. With SDGLEVKIPEGCNTSD the figure was less than -0.25.

In the case of RYCPLESRFLGRVPIQYSVG, the growth estimate was less than -0.25. TGNCESVGTVVSILAQGH: the growth estimate was less than -0.25. With GEAFVANLSQ the figure was -0.248. The figure for SDSLQ is less than -0.25.

Regarding VQAGSGSLKALVDNYPLMGG, the growth estimate was less than -0.25. As for SNRGRYVPIGSCLSRLAADR, the growth estimate was less than -0.25. The figure for NGRGWLITSLPINAASGSPG is less than -0.25; for FEPLGYYKALIERVN it is less than -0.25; for TGIVEIGVQYGWLFGSRL it is less than -0.25. With SKEGCNGTHRWDTDFSKSPG the figure was less than -0.25; with GKARY, less than -0.25. Regarding MKPYIDLSMKLREDRVQFAS, the growth estimate was less than -0.25. The figure for VWLRFPAN is less than -0.25; for HRSMIYLRRPMSRGAPCAYG it is less than -0.25.
